Results as given in US9365502B2, “Neuroactive substituted cyclopenta[b]phenanthrenes as modulators for GABA type-A receptors” (priority 2013, dated 2016).

How the values were obtained:
[1] = system: picrotoxin binding site on GABAA receptors; test: [35S]-TBPS displacement (inhibition of [35S]-TBPS binding); conditions: Hill coefficient, ± SEM
Experimental: The IC50 values for non-competitive displacers of [^35S]-TBPS from the picrotoxin binding site on GABAA receptors are reported in Table 1.
Results presented are from duplicate experiments performed in triplicate. Error limits are calculated as standard error of the mean. Methods used are known in the art (see Jiang, X., et al., Neurosteroid analogues. 9. Conformationally constrained pregnanes: structure-activity studies of 13,24-cyclo-18,21-dinorcholane analogues of the GABA modulatory and anesthetic steroids (3α,5α)- and […]. J. Med. Chem., 46: 5334-48 (2003)—the contents of which are hereby incorporated by reference in their entirety).

Tadpole = Tadpole loss of righting (LRR) and loss of swimming (LSR) reflexes; type: in vivo; conditions: Hill coefficient; for Tadpole LRR nHill: loss of righting reflex; for Tadpole LSR nHill: loss of swimming reflex
Experimental: Table 3 discloses the anesthetic effects of the compounds of the present disclosure. In particular, the anesthetic effect of the compounds of the present disclosure on Loss of Righting Reflex (LRR) and Loss of Swimming Reflex (LSR).
Methods used are known in the art (see Jiang, X., et al.). Error limits are calculated as standard error of the mean (N=10 or more animals at each of five or more different concentrations).

Compound	Inhibition of [35S]-TBPS Binding nHill [1]	Tadpole LRR nHill (Tadpole)	Tadpole LSR nHill (Tadpole)
C[C@]12C[C@H]3CC[C@@H]4C[C@@H](O)CC[C@H]4[C@@H]3C[C@@H]1CC[C@@H]2[N+](=O)[O-] [MQ-33]	0.92 ± 0.07	−2.65 ± 0.15	−33.3 ± 0.1
C[C@@]12CC[C@@H](O)C[C@@H]1CC[C@H]1C[C@@]3(C)[C@H](CC[C@@]34CO4)C[C@@H]12 [MQ-85]	0.93 ± 0.16	−2.60 ± 0.55	−33.3 ± 0.1
C[C@@]12C[C@@H]3CC[C@@H]4C[C@H](O)CC[C@@H]4[C@H]3C[C@H]1CCC2=O [MQ-51]	1.02 ± 0.13		
C[C@]12C[C@H]3CC[C@@H]4C[C@@H](O)CC[C@H]4[C@@H]3C[C@@H]1CC/C2=C\C#N [MQ-32]	0.97 ± 0.05	−4.97 ± 5.92	−21.1 ± 1.0
C[C@]12C[C@H]3CC[C@@H]4C[C@@H](O)CC[C@H]4[C@@H]3C[C@@H]1CC[C@@H]2C#N [MQ-38]	1.06 ± 0.13	−4.88 ± 3.39	−20.4 ± 0.5
C[C@@]12CC3CC[C@H]4C[C@H](O)CCC4C3CC1CCC2=O (stereo partly shown) [MQ-47]	1.04 ± 0.29	−4.87 ± 28.4	
C[C@]12C[C@H]3CCC4C[C@@H](O)CC[C@H]4[C@@H]3C[C@@H]1CCC2=O (stereo partly shown) [MQ-36]	1.26 ± 0.09	−1.57 ± 0.84	
C[C@@]12CC[C@H](O)C[C@@H]1CC[C@@H]1C[C@]3(C)C(=O)CCC3C[C@H]12 (stereo partly shown) [MQ-83]	1.08 ± 0.13	−1.79 ± 0.47	−33.3 ± 0.1
CC(=O)[C@@H]1CC[C@@H]2C[C@H]3[C@@H](CC[C@H]4C[C@H](O)CC[C@@H]43)C[C@]21C [MQ-50]	0.90 ± 0.15	−1.30 ± 0.67	
C[C@@]12CC[C@H](O)C[C@H]1CC[C@@H]1C[C@@]3(C)C(CC[C@@H]3C#N)CC12 (stereo partly shown) [MQ-87]	0.79 ± 0.07	−20.6 ± 0.6	−149 ± 0.5
C[C@@]12CC3CCC4C[C@H](O)CCC4C3CC1CC[C@]21CO1 (stereo partly shown) [MQ-54]	5.28 ± 1.13	−16.3 ± 5.3	−33.3 ± 0.1
C[C@]12C[C@H]3CC[C@@H]4C[C@@H](O)CCC4C3CC1CC[C@@]21CO1 (stereo partly shown) [MQ-37]	1.29 ± 0.12	−2.87 ± 0.06	−33.3 ± 0.1
C[C@@]12CC3CCC4C[C@H](O)CCC4C3CC1CC[C@H]2C#N (stereo partly shown) [MQ-49]	1.04 ± 0.14	−1.71 ± 0.67	−33.3 ± 0.1
CC(=O)[C@H]1CCC2CC3C(CCC4C[C@H](O)CCC43)C[C@@]21C (stereo partly shown) [MQ-39]	0.89 ± 0.08	−19.3 ± 0.7	−16.1 ± 0.9
C[C@@]12CC[C@H](O)C[C@H]1CC[C@@H]1C[C@]3(C)C(C#N)=CCC3CC12 (stereo partly shown) [MQ-86]	0.89 ± 0.05	−4.87 ± 2.93	−33.3 ± 0.1
C[C@]12C[C@H]3CC[C@@H]4C[C@@H](O)CC[C@H]4[C@@H]3C[C@@H]1CC/C2=C/C#N [MQ-31]	1.02 ± 0.06	−2.91 ± 1.16	−16.9 ± 0.7
C[C@]12CC(=O)CC1CC1C(CCC3C[C@H](O)CCC31)C2 (stereo partly shown) [MQ-48]	0.60 ± 0.21	−2.10 ± 0.42	−28.6 ± 0.0
